Among all 330,000 compounds or so, about 100 (0.03%) were called active. The inconclusive results got no clear call from the source; some entries with a clear call stand among them for comparison. Calls follow the shape of the dose curve; as a rule, active = well fitted inhibition curve with a large enough effect; inconclusive = small, poorly fitted or top-dose-only effect; inactive = flat fitted curve, though single readings scatter. Potencies of inconclusive entries are doubtful fits and often do not repeat.
system: Chaperonin Mm-Cpn (Methanococcus maripaludis); experiment: Inhibitors of TCP-1 ring complex (TRiC) of Methanococcus maripaludis (MmCpn): qHTS; details: purified Mm-Cpn ATPase, ADP Transcreener TR-FRET; also: nearly all actives have a fitted effect of over 80% in size;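 as to Potency: enzyme at 25 nM with ATP substrate at 10 µM during the reaction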
Outline: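 ATPase read-out: TR-FRET ADP immunoassay (anti-ADP Eu cryptate vs ADP-d2), ex 320 nm, em 590/665 nm; signal drops as ADP forms. Enzyme 25 nM, ATP 10 uM, 30 min at 37°C after 10 min compound preincubation.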
Potency is read from the fitted curve at half-maximal effect.

Potency, inactive:
CC1CCCN(S(=O)(=O)c2ccc(NC(=O)CN3CCCCC3)cc2)C1 (stereo not drawn)
Nc1cc(Cl)ccc1Oc1ccc(Cl)cc1
Cc1ccc(-n2nc3c(=O)n(C(C)C(=O)NC4CC4)nc(C)c3c2C)cc1 (stereo not drawn)
Clc1ccc(/C=N/NC2=Nc3cccc4cccc2c34)cc1
CC(=O)N(/N=C/c1ccc([N+](=O)[O-])o1)c1nc2ccccc2c(=O)n1-c1ccccc1
Cc1ccc(NC(=O)CSc2ccc3nnc(-c4cccnc4)n3n2)cc1
COc1ccc(OC)c([N+](=O)[O-])c1C(N)=O
Cc1ccc(CNC(=O)c2ccc(N3CCC4(CC3)CC(c3ccccc3)=NO4)c(NC(=O)c3ccccc3)c2)cc1
CCN(C(=O)Cc1ccccc1OC)c1nnc(-c2ccncc2)s1
COc1ccc(C)cc1S(=O)(=O)N(CC(=O)NC1CCCC1)c1ccc(F)cc1
Cc1nnc(NN)n(N)c1=O
COC(=O)c1oc(-c2ccc(Cl)cc2)nc1C
Oc1ccc(/C=N/N(c2ccccc2)c2ccccc2)c(O)c1O
Cc1ccc(C2=N/C(=C\c3ccc(F)cc3)C(=O)N2)cc1
Cc1ccc(-c2n[nH]c(=S)n2Cc2ccccc2)cc1
Cc1nn(-c2ccccc2)c(C)c1/C=N/Nc1nc2ccccc2[nH]1
CCCCSc1nc(NCc2ccco2)c2c3c(sc2n1)COC(C)(C)C3
Cc1csc(SCC(=O)NC(=O)NC2CCCC2)n1
CCS(=O)(=O)c1ncc(Cl)c(C(=O)Nc2ccccc2OC)n1
CCNC(=S)N(CCc1ccccc1C)Cc1cc2cc(OC)c(OC)cc2[nH]c1=O

Potency, inconclusive:
COc1cc(CNc2ncn[nH]2)cc(Br)c1OC 11.2 µM [inhibitor, single point]
C=C1CCc2c([nH]c3ccc(OCC(C)C)cc23)C1=O 11.2 µM [inhibitor, single point]
Cc1cc(C)nc(NC(=O)c2cc(-c3ccc4c(c3)OCO4)nc3ccccc23)c1 100 µM [inhibitor, single point]
Cc1ccc(S(=O)(=O)CCc2nnc(NC(=O)CCl)s2)cc1C 89.1 µM [inhibitor, single point]
COCCOc1cc(NC(=O)c2cccc(OC)c2)c(Cl)cc1Cl 100 µM [inhibitor, single point]
CCN(CC)C(=O)Cn1cnc2sc(C(=O)Nc3cc(OC)c(OC)c(OC)c3)c(C)c2c1=O 100 µM [inhibitor, single point]
COC(=O)c1ccc(-c2noc(CN(Cc3nccn3C)C(C)C)n2)cc1 100 µM [inhibitor, single point]
COc1ccccc1NS(=O)(=O)c1cc(N)ccc1N1CCCCC1 112 µM [inhibitor, single point]
COc1cccc(-c2cc(-c3cccnc3)nc(N)c2C#N)c1 79.4 µM [inhibitor, single point]
O=C(c1cc2sccc2n1Cc1ccccc1)N1CCc2ccccc21 70.8 µM [inhibitor, single point]
Cc1cc(C)c(C#N)c(SCC(=O)Nc2ccccc2C)n1 56.2 µM [inhibitor, single point]
COc1ccc(CCNC(=O)c2ccc3c(c2)N(Cc2ccc(C)cc2)CCS3)cc1OC 100 µM [inhibitor, single point]
CC(C)(C)n1nnnc1C(c1ccncc1)N(Cc1ccccc1)Cc1ccco1 (stereo not drawn) 100 µM [inhibitor, single point]
CCOC(=O)c1[nH]c2ccc(OC)cc2c1NC(=S)N1CCN(c2cccc(C)c2C)CC1 63.1 µM [inhibitor, single point]
Cc1ccc(S(=O)(=O)NCC(=O)OCC(=O)c2ccc(Br)s2)cc1 224 µM [inhibitor, partial curve, poor fit]
Cc1nc(SCC(=O)c2ccc(Cl)cc2)c([N+](=O)[O-])[nH]1 28.2 µM [inhibitor, single point]
COCCNC(=O)c1c(N)n(-c2ccccc2)c2nc3ccccc3nc12 50.1 µM [inhibitor, single point]
COc1ccccc1-c1sc2ccccc2c1-c1ccc2c(c1)OCO2 31.6 µM [inhibitor, partial curve, poor fit]
Ic1ccc(N2CCN(Cc3c[nH]c4ncccc34)CC2)cc1 63.1 µM [inhibitor, single point]
CCOC(=O)N1CCN(C(=O)CCc2ccc(S(=O)(=O)NCCc3ccccc3)cc2)CC1 70.8 µM [inhibitor, single point]
Cc1cc(OCCN2CCOCC2)ccc1C(C)C 100 µM [inhibitor, single point]
Fc1ccccc1CSc1nc2ncc(Br)cc2[nH]1 200 µM [inhibitor, partial curve, poor fit]
COc1ccc(Cl)cc1Nc1nc(-c2sc(NC(=O)c3ccccc3)nc2C)cs1 100 µM [inhibitor, single point]
CC1Oc2ccccc2N(CC(=O)NCCCN2CCOCC2)C1=O (stereo not drawn) 100 µM [inhibitor, single point]
CC/C(C)=N/Oc1nc(C)cc(C)n1 100 µM [inhibitor, single point]
CCN(CC(=O)NC(=O)NCc1ccccc1)Cc1nc2ccccc2c(=O)[nH]1 100 µM [inhibitor, single point]
CS(=O)(=O)c1ccc(Cl)c(NC(=O)COC(=O)c2c(Cl)cccc2Cl)c1 79.4 µM [inhibitor, single point]
COc1cccc(N2CCN(C(=O)CN(C)S(=O)(=O)c3ccc4c(c3)c(=O)n(C)c(=O)n4C)CC2)c1 25.1 µM [inhibitor, single point]
CSCC[C@H](NC(=O)Cc1c(C)c2c(cc(C)c3c(C)c(C)oc32)oc1=O)C(=O)O 20 µM [inhibitor, single point]
Cc1cc(=O)[nH]c(SCc2csc(-c3ccccc3)n2)n1 501 µM [inhibitor, partial curve, poor fit]
O=c1[nH]c(CN2CCc3ccccc3C2)nc2ccccc12 25.1 µM [inhibitor, single point]
CC1=C/C(=C(\c2cc(C)c(O)c(Br)c2)c2ccccc2S(=O)(=O)O)C=C(Br)C1=O 56.2 µM [inhibitor, partial curve, poor fit]
O=c1[nH]c(CSc2ncnc3sccc23)nc2cc(C(F)(F)F)ccc12 14.1 µM [inhibitor, single point]
O=C(CNS(=O)(=O)c1ccc2ccccc2c1)OCC(=O)c1ccc(Br)s1 63.1 µM [inhibitor, partial curve, poor fit]
COC(=O)c1ccccc1NC(=O)c1sc(=S)n(C)c1N 11.2 µM [inhibitor, single point]
CSc1nc2sc3c(c2c2nncn12)CCC3 447 µM [inhibitor, partial curve, poor fit]
Cc1nc(N2CCN(S(=O)(=O)c3ccccc3C#N)CC2)c2c(-c3ccccc3)csc2n1 89.1 µM [inhibitor, single point]
CC(=O)N=c1sc2nc3ccccc3nc2n1N(C(C)=O)C(C)=O 158 µM [inhibitor, partial curve]
CC1=C/C(=C(/c2cc(C)c(O)c(Br)c2)c2ccccc2S(=O)(=O)O)C=C(Br)C1=O 158 µM [inhibitor, partial curve, poor fit]
Cc1ccc(-c2nc3cccnc3s2)cc1NS(=O)(=O)c1ccc2c(c1)CCCC2 501 µM [inhibitor, partial curve, poor fit]
O=C(/C(C=Nc1ccc(F)cc1)=C(/O)c1ccco1)C(F)(F)F 10 µM [inhibitor, single point]
c1coc(CNc2ncnc3c2oc2ccccc23)c1 31.6 µM [inhibitor, single point]
CC(=O)c1ccc(N2CCN(C(=O)c3cc(-c4ccc5c(c4)OCO5)nc4ccccc34)CC2)cc1 178 µM [inhibitor, single point]
CC(=O)OC(COC1C[C@@H]2CC[C@@]1(C)C2(C)C)C[N+]1(C)CCCCC1 (stereo partly drawn) 89.1 µM [inhibitor, single point]
NS(=O)(=O)c1ccc(NC(=S)NC(=O)c2ccco2)cc1 89.1 µM [inhibitor, single point]
Cc1cc2cc(CNC(=O)c3cccs3)ccc2n1C 224 µM [inhibitor, partial curve, poor fit]
COc1ccc(-n2cnnc2SCC(=O)c2ccc(S(=O)(=O)N3CCOCC3)cc2)cc1 251 µM [inhibitor, partial curve, poor fit]
CCN(CCNC(=O)C1CCN(S(=O)(=O)c2cccc3cccnc23)CC1)c1ccccc1 158 µM [inhibitor, partial curve, poor fit]

3 structures from above, sorted by formula weight, low to high.
Potency, inconclusive:
c1coc(CNc2ncnc3c2oc2ccccc23)c1 31.6 µM [inhibitor, single point]
COc1cccc(-c2cc(-c3cccnc3)nc(N)c2C#N)c1 79.4 µM [inhibitor, single point]
Cc1nc(SCC(=O)c2ccc(Cl)cc2)c([N+](=O)[O-])[nH]1 28.2 µM [inhibitor, single point]

Reference: PubChem BioAssay AID504842 (National Center for Advancing Translational Sciences (NCATS), 2011)
